{"source": "PubChem BioAssay AID445", "about": "(National Center for Advancing Translational Sciences (NCATS), 2006)", "note": "The other results are listed elsewhere or left out. Further columns of the screen follow, without active or inactive calls. The list favours compounds with an active or inconclusive main result. Potencies come from curve fits of mixed quality, noted in brackets."}
{"test": "IkB Signaling", "conditions": "ABC-DLBCL IkBa-CBG/CBR dual luciferase ratio (green luciferase fused to IkBa over red control in OCI-Ly3 lymphoma cells), 4 h; measured here: control luc red channel unless noted", "method_in_brief": "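In this assay, an IκBα–CBG68 fusion accumulates when IKK-driven degradation is blocked; native CBR normalizes for cell number. OCI-Ly3 cells were treated 4 h with compound and doxycycline, then green and red light read after Chroma-Glo addition.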"}
{"smiles": "CC(=O)O[C@]1(C(C)=O)CC[C@H]2[C@@H]3C[C@H](C)C4=CC(=O)CC[C@]4(C)[C@H]3CC[C@@]21C", "AC50": "12.6 nM [rising, full curve] [measured here: IkB-luc green channel]"}
{"smiles": "O=C(COc1ccc(Cl)cc1Cl)Nc1cccc2cccnc12", "AC50": "0.794 µM [rising, full curve]"}
{"smiles": "Cc1nc(NCc2ccc3c(c2)OCO3)c2oc3ccccc3c2n1", "AC50": "12.6 µM [falling, partial curve]"}
{"smiles": "Nc1c(C(=O)NCC2CCCO2)c2nc3ccccc3nc2n1-c1ccccc1", "note": "(centres undefined)", "AC50": "15.8 µM [falling, partial curve]"}
{"smiles": "O=C(NCCc1ccc(Cl)cc1)c1ccc2c(c1)N(Cc1ccc(Cl)cc1)C(=O)CS2", "AC50": "3.16 µM [falling, full curve]"}
{"smiles": "COCCCNC(=O)CCn1c(=O)c2ccccc2n(CC(=O)Nc2cc(Cl)ccc2OC)c1=O", "AC50": "0.0126 µM [rising, full curve, poor fit]"}
{"smiles": "CCN(Cc1ccccc1)Cc1c(O)ccc2oc(C)c(C(=O)Nc3ccc(C)cc3C)c12", "AC50": "12.6 µM [falling, partial curve]"}
{"smiles": "Cc1cccc(N2CCn3c2nc2c3c(=O)n(C/C=C/c3ccccc3)c(=O)n2C)c1", "AC50": "12.6 µM [falling, partial curve]"}
{"smiles": "CCCCN(CC)c1nc(-c2ccccc2F)nc2ccccc12", "AC50": "12.6 µM [falling, single point]"}
{"smiles": "COc1ccc(-c2cc(C(=O)N3CCN(c4ccccc4)CC3)no2)cc1", "AC50": "0.794 µM [falling, full curve]"}
{"smiles": "CCc1nnc(NC(=O)c2nc(SCc3ccccc3F)ncc2Cl)s1", "AC50": "25.1 µM [falling, single point]"}
{"smiles": "CCCCOc1ccc(Cn2c(=O)oc3ccc(C)cc32)cc1OC", "AC50": "20 µM [falling, partial curve]"}
{"smiles": "COc1ccc2c(c1)c(=O)c(C(=O)c1ccc(F)cc1)cn2CC(=O)Nc1ccc2c(c1)OCO2", "AC50": "39.8 µM [rising, single point] [measured here: IkB-luc green channel]"}
{"smiles": "Cc1ccc(S(=O)(=O)N(CC(=O)NCCSc2ccc(Cl)cc2)c2ccccc2C)cc1", "AC50": "10 µM [falling, partial curve]"}
{"smiles": "COc1ccc(Cl)cc1C(=O)Nc1nnc2n1CCS2", "AC50": "0.158 µM [falling, full curve, poor fit]"}
{"smiles": "CN(Cc1ccccc1)C(=O)CSc1nc(-c2ccc(F)cc2)cc(C(F)(F)F)n1", "AC50": "6.31 µM [falling, partial curve]"}
{"smiles": "CCCC(CCC)C(=O)NC1CC(=O)N(c2ccc3c(c2)OCCO3)C1", "note": "(centres undefined)", "AC50": "3.98 µM [rising, partial curve]"}
{"smiles": "COc1ccc(NC(=O)C2CCCN(c3nnc(C)c4c(C)n(-c5ccccc5)nc34)C2)cc1Cl", "note": "(centres undefined)", "AC50": "15.8 µM [falling, partial curve]"}
{"smiles": "COc1ccccc1-n1c(CNC(=O)c2ccco2)nnc1SCC(=O)Nc1ccc(F)cc1", "AC50": "1.26 µM [falling, full curve]"}
{"smiles": "COCCOC(=O)c1c(-c2ccccc2)c(-c2ccccc2)nn(C)c1=O", "AC50": "1.26 µM [rising, partial curve]"}
{"smiles": "CCOc1ccc(CC(=O)Nc2c(C(=O)c3ccccc3)oc3ccc(OC)cc23)cc1OCC", "AC50": "10 µM [rising, partial curve, poor fit]"}
{"smiles": "O=C(Nc1ccc(-c2noc(CCc3ccccc3)n2)cc1)c1ccco1", "AC50": "10 µM [falling, partial curve]"}
{"smiles": "CN(Cc1ccccc1)S(=O)(=O)c1ccc(C(=O)Nc2nnc(C3CC3)o2)cc1", "AC50": "12.6 µM [falling, partial curve]"}
{"smiles": "C=C(C)COc1ccc(-c2nc(N)ncc2-c2ccc(OC)cc2)c(O)c1", "AC50": "15.8 µM [falling, partial curve]"}
{"smiles": "COCCSc1nnc(NS(=O)(=O)Cc2ccccc2)s1", "AC50": "1.58 µM [falling, partial curve]"}
{"smiles": "Nc1c(C(=O)NCCN2CCOCC2)c2nc3ccccc3nc2n1-c1ccccc1", "AC50": "15.8 µM [falling, partial curve]"}
{"smiles": "Cc1cc(NS(=O)(=O)c2ccc3oc(=O)c4ncn(C)c4c3c2)ccc1Br", "AC50": "25.1 µM [falling, single point]"}
{"smiles": "Cc1nc2ccn(Cc3ccco3)c(=O)c2cc1C(=O)N1CCN(c2ccc(F)cc2)CC1", "AC50": "20 µM [falling, partial curve]"}
{"smiles": "COc1cccc(CNC(=O)C(C)n2c(=O)cc(-c3ccccc3)c3c(C)nn(C)c32)c1", "note": "(centres undefined)", "AC50": "12.6 µM [falling, single point]"}
{"smiles": "O=C(Cn1[nH]c(=O)c2ccccc2c1=O)N1CC=C(c2ccccc2)CC1", "AC50": "15.8 µM [falling, partial curve]"}
{"smiles": "COc1cccc(C(=O)Nc2ccc3oc(-c4cccc5c(Br)cccc45)nc3c2)c1", "AC50": "3.98 µM [falling, full curve]"}
{"smiles": "Cc1ccc(Nc2nnc(-c3ccc(C)c(S(N)(=O)=O)c3)c3ccccc23)cc1", "AC50": "12.6 µM [falling, partial curve]"}
{"smiles": "CCCOC(=O)c1ccc(-c2c(C)noc2-c2ccc(OC)cc2O)o1", "AC50": "20 µM [falling, partial curve]"}
{"smiles": "CCc1ccccc1N(C)C(=O)c1ccc2c(=O)n3c(nc2c1)CCCCC3", "AC50": "20 µM [falling, single point]"}
{"smiles": "COc1ccc(N2CCN(C(=O)CCc3c(C)nc4cc(-c5ccc(OC)cc5OC)nn4c3C)CC2)cc1", "AC50": "0.794 µM [falling, full curve]"}
{"smiles": "CN(C)S(=O)(=O)c1ccc(C(=O)NCCSc2c(-c3ccc(Cl)cc3)[nH]c3ccccc23)cc1", "AC50": "0.631 µM [falling, full curve]"}
{"smiles": "c1ccc(N2CCN(c3nnc(Cc4cccnc4)c4ccccc34)CC2)nc1", "AC50": "20 µM [falling, partial curve]"}
{"smiles": "O=C(CSc1nc(-c2ccc(F)cc2)[nH]c1-c1ccc(F)cc1)Nc1ccc2c(c1)OCCO2", "AC50": "7.94 µM [falling, partial curve]"}
{"smiles": "Cc1ccc(C)c(N2CCN(C(=O)c3cnn(-c4ccccc4Cl)c3C3CCN(C(=O)OC(C)(C)C)CC3)CC2)c1", "AC50": "15.8 µM [falling, partial curve]"}
